In article PMC12656476:
Results are given in words; binding and its absence hold for the method and conditions named. Some results given as binding are weak or reduced against the parent protein; the word gives no strength.

Sequences of proteins named here, by UniProt entry; tags and fusion partners are left off. Residues count along the entry.
UniProt P01556, residues 22-124: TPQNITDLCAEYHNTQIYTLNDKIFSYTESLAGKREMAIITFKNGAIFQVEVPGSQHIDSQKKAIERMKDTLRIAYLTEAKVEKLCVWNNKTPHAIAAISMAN

Molecular target: CTB from V. cholerae (reference) (Vibrio cholerae) (UniProt P01556)
Test: native gel or EMSA; both purified

Substance: CTB from V. cholerae (reference) (from UniProt P01556 22-124)
- binding: binds
